These results are taken from paper doi:10.1101/751974.

Amino acid sequences for entries named in this document (tags omitted).
UniProt P27694: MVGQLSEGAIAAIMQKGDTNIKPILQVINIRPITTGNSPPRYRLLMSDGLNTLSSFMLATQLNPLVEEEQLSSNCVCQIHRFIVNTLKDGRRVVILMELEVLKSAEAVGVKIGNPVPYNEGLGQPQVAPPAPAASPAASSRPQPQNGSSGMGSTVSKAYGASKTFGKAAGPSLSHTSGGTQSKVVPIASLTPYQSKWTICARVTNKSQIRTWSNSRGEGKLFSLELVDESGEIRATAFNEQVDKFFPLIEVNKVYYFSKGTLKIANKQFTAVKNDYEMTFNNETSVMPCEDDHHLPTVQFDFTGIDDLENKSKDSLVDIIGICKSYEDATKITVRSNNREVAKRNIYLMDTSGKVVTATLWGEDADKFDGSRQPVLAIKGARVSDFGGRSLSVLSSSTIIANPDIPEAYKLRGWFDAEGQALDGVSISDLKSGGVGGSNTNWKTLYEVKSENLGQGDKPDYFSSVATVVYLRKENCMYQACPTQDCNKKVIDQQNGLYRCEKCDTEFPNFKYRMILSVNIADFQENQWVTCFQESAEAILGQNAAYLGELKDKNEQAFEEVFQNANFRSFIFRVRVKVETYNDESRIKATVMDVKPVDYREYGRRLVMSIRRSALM

The target of one experiment is T1, MCM8IP-HA (human) (UniProt Q8N3J3).
T1 sequence: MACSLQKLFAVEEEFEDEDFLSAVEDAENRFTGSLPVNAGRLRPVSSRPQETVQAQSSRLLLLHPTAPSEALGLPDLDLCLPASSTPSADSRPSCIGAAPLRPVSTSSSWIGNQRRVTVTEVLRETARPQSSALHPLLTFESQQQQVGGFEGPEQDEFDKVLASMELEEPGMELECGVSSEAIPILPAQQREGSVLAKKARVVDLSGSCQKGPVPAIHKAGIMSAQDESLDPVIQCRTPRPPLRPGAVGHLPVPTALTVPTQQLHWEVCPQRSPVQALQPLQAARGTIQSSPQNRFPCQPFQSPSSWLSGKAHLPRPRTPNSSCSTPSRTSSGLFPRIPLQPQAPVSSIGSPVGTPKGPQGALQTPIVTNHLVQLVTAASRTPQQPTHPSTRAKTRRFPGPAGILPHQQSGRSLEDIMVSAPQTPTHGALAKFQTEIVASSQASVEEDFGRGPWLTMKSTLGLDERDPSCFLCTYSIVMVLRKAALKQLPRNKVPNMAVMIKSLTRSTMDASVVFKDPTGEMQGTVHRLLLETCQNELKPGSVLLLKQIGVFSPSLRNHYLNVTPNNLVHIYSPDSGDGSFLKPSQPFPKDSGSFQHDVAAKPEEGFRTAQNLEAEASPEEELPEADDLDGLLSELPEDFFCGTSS
Description: affinity purification with mass spectrometry.

The next experiment addresses T2, BirA*-MCM8IP (human) (UniProt Q8N3J3).
T2 sequence: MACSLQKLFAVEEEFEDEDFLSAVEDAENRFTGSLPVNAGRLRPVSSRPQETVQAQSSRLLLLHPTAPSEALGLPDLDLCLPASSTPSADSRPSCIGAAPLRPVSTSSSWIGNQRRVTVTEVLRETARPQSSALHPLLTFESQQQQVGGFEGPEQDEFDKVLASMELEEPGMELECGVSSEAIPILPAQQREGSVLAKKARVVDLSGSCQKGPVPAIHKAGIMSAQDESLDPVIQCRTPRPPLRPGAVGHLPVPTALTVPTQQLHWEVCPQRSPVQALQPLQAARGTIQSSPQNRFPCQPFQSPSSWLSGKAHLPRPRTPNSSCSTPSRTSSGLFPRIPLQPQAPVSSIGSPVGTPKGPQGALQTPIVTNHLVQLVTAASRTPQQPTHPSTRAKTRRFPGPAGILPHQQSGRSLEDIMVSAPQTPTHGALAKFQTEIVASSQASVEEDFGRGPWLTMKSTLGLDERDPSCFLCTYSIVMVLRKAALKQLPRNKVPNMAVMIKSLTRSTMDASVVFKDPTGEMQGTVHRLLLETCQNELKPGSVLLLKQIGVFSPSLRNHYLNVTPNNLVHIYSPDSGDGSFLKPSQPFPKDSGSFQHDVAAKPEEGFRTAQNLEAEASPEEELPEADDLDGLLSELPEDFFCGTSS
The experiment can be described thus: proximity labelling.

In a further experiment the target is T3, MCM8IP-BirA* (human) (UniProt Q8N3J3).
T3 sequence: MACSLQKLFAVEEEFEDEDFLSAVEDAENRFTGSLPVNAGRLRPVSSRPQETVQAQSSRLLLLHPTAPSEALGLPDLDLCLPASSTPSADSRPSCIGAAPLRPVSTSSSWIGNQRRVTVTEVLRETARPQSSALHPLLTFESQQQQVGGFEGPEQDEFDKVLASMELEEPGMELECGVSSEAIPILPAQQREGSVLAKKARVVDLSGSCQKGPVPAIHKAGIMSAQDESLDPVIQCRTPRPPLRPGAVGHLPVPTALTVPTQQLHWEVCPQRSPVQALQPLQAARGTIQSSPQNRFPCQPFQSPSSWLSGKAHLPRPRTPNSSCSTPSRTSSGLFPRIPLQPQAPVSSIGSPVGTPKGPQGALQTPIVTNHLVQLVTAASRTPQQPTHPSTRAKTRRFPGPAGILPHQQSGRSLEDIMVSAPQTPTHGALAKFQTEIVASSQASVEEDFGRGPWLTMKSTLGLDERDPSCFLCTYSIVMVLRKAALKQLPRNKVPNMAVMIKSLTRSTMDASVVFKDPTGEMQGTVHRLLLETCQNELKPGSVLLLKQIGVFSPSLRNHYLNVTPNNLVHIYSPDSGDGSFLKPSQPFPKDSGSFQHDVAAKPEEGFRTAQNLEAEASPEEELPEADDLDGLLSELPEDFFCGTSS
Description: proximity labelling.

The target of experiment [1] is BirA*-RPA1 (UniProt P27694). Description: proximity labelling.
The target in experiment [2] is BirA*-RPA1 (UniProt P27694). The experiment can be described thus: proximity labelling. The source holds these as a separate data set.

Where two headings read alike, the source gives them in different places. No constants are given. Whether binding was seen depends on the method and setting. In cells and extracts the contact can be indirect. Here binding means that the protein was enriched with, or labelled near, the bait; the list need not be complete. For some assays here: Tags and fused reporters may be left off the sequences shown.

B1: SMARCAL1, endogenous (protein, UniProt Q9NZC9 1-954)
chain: MSLPLTEEQRKKIEENRQKALARRAEKLLAEQHQRTSSGTSIAGNPFQAKQGPSQNFPRESCKPVSHGVIFKQQNLSSSSNADQRPHDSHSFQAKGIWKKPEEMPTACPGHSPRSQMALTGISPPLAQSPPEVPKQQLLSYELGQGHAQASPEIRFTPFANPTHKPLAKPKSSQETPAHSSGQPPRDAKLEAKTAKASPSGQNISYIHSSSESVTPRTEGRLQQKSGSSVQKGVNSQKGKCVRNGDRFQVLIGYNAELIAVFKTLPSKNYDPDTKTWNFSMNDYSALMKAAQSLPTVNLQPLEWAYGSSESPSTSSEGQAGLPSAPSLSFVKGRCMLISRAYFEADISYSQDLIALFKQMDSRRYDVKTRKWSFLLEEHSKLIAKVRCLPQVQLDPLPTTLTLAFASQLKKTSLSLTPDVPEADLSEVDPKLVSNLMPFQRAGVNFAIAKGGRLLLADDMGLGKTIQAICIAAFYRKEWPLLVVVPSSVRFTWEQAFLRWLPSLSPDCINVVVTGKDRLTAGLINIVSFDLLSKLEKQLKTPFKVVIIDESHFLKNSRTARCRAAMPVLKVAKRVILLSGTPAMSRPAELYTQIIAVKPTFFPQFHAFGLRYCDAKRMPWGWDYSGSSNLGELKLLLEEAVMLRRLKSDVLSQLPAKQRKIVVIAPGRINARTRAALDAAAKEMTTKDKTKQQQKDALILFFNRTAEAKIPSVIEYILDLLESGREKFLVFAHHKVVLDAITQELERKHVQHIRIDGSTSSAEREDLCQQFQLSERHAVAVLSITAANMGLTFSSADLVVFAELFWNPGVLIQAEDRVHRIGQTSSVGIHYLVAKGTADDYLWPLIQEKIKVLAEAGLSETNFSEMTESTDYLYKDPKQQKIYDLFQKSFEKEGSDMELLEAAESFDPGSASGTSGSSSQNMGDTLDESSLTASPQKKRRFEFFDNWDSFTSPL
Consider B1, for which the binding entry with MCM8IP-HA (human), in the experiment with BirA*-MCM8IP (human) and with MCM8IP-BirA* (human) was “binds” each time.

B2: MCM8IP, endogenous (protein, UniProt Q8N3J3-4 1-646)
chain: MACSLQKLFAVEEEFEDEDFLSAVEDAENRFTGSLPVNAGRLRPVSSRPQETVQAQSSRLLLLHPTAPSEALGLPDLDLCLPASSTPSADSRPSCIGAAPLRPVSTSSSWIGNQRRVTVTEVLRETARPQSSALHPLLTFESQQQQVGGFEGPEQDEFDKVLASMELEEPGMELECGVSSEAIPILPAQQREGSVLAKKARVVDLSGSCQKGPVPAIHKAGIMSAQDESLDPVIQCRTPRPPLRPGAVGHLPVPTALTVPTQQLHWEVCPQRSPVQALQPLQAARGTIQSSPQNRFPCQPFQSPSSWLSGKAHLPRPRTPNSSCSTPSRTSSGLFPRIPLQPQAPVSSIGSPVGTPKGPQGALQTPIVTNHLVQLVTAASRTPQQPTHPSTRAKTRRFPGPAGILPHQQSGRSLEDIMVSAPQTPTHGALAKFQTEIVASSQASVEEDFGRGPWLTMKSTLGLDERDPSCFLCTYSIVMVLRKAALKQLPRNKVPNMAVMIKSLTRSTMDASVVFKDPTGEMQGTVHRLLLETCQNELKPGSVLLLKQIGVFSPSLRNHYLNVTPNNLVHIYSPDSGDGSFLKPSQPFPKDSGSFQHDVAAKPEEGFRTAQNLEAEASPEEELPEADDLDGLLSELPEDFFCGTSS
Regarding B2, the binding entry with BirA*-RPA1 [1] and with BirA*-RPA1 [2] was “binds” each time.
